# In the supplement of paper PMC8728848:
# The list shows a part of the results.
# B1: truncCC1G-10077 (Coprinopsis cinerea) (protein)
# chain: MHHHHHHHHPLPSPGPGWVLIQNGGTGKFLCSTPSGDIGTADGPETVYDYSVQWRFIQREYTGVYHVVNRATGAYLRQIGTSMPSIGLAEENDDELKDWWMLETYDNSEIGLASIISRWTGNVLDHYGGVSVQALDNNTENSYRSWAIIPARDWLTSFSLVNGQGGLCLAAQYAREETRLSTTANVNDFHAQWVFRKPSGSSGYTIQNKYNNHYVGGTSARWELVVCCNKYFGIRNTSTQKYLAIEDGQVTFQDQDMTDRKQCWELCSGRATDTSGNDYDLIYMDDDLLEVMIPWVGDKQGDLKHYIEKRATKKPPKDKGGWQLPAAGLIKKPKFNDIRQLLQELIEQWEWDVVNEEREQIQTLVSIDEAEARRLLGRRPHPDIVAAYQRSRSSTLFRIDRQGYFNIAGDRYVNIQGQYGDDSYFHIALPVGVRFGREQIRRFLRDSLDRSTSVTITPTTCKPPSGGPDYNRDPDSDGDNSWIKWTIAVVGTSAIKHSEL
# Key:
# Experiment in all cases: glycan array binding signal (z-score within array); higher = stronger binding
# Settings in all cases: glycan notation: IUPAC condensed, linker removed
# [1] = target: Gal(b1-3)GlcNAc(b1-6)[Gal(b1-3)]GalNAc
# Outline: (§1)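 The binding signal is a Z-score computed within each array and averaged over linkers. Arrays of the same protein sequence at different concentrations or buffers were also averaged together. Data originate from 3228 arrays in the Consortium for Functional Glycomics database, kept only where the protein sequence was available.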
# [2] = target: Gal(b1-3)GlcNAc6S
# Outline: as §1
# [3] = target: Gal(b1-3)[Fuc(a1-4)]GlcNAc
# Outline: as §1
# [4] = target: Gal(b1-3)[Fuc(a1-4)]GlcNAc(b1-2)Man
# Outline: as §1
# [5] = target: Gal(b1-3)[Fuc(a1-4)]GlcNAc(b1-2)Man(a1-3)[Gal(b1-3)[Fuc(a1-4)]GlcNAc(b1-2)Man(a1-6)]Man(b1-4)GlcNAc(b1-4)[Fuc(a1-6)]GlcNAc
# Outline: as §1
# [6] = target: Gal(b1-3)[Fuc(a1-4)]GlcNAc(b1-3)Gal(b1-3)[Fuc(a1-4)]GlcNAc
# Outline: as §1
# [7] = target: Gal(b1-3)[Fuc(a1-4)]GlcNAc(b1-3)Gal(b1-4)[Fuc(a1-3)]GlcNAc
# Outline: as §1
# [8] = target: Gal(b1-3)[Fuc(a1-4)]GlcNAc(b1-6)GalNAc
# Outline: as §1
# [9] = target: Gal(b1-3)[GlcNAc(b1-6)]GalNAc
# Outline: as §1
# [10] = target: Gal(b1-3)[Neu5Ac(a2-6)]GalNAc
# Outline: as §1
# [11] = target: Gal(b1-3)[Neu5Ac(a2-6)]GlcNAc(b1-4)Gal(b1-4)Glc
# Outline: as §1
# [12] = target: Gal(b1-3)[Neu5Ac(b2-6)]GalNAc
# Outline: as §1
# [13] = target: Gal(b1-4)Gal
# Outline: as §1
# [14] = target: Gal(b1-4)GalNAc(a1-3)[Fuc(a1-2)]Gal(b1-4)GlcNAc
# Outline: as §1
# [15] = target: Gal(b1-4)GalNAc(b1-3)[Fuc(a1-2)]Gal(b1-4)GlcNAc
# Outline: as §1
# [16] = target: Gal(b1-4)Glc
# Outline: as §1
# [17] = target: Gal(b1-4)Glc6S
# Outline: as §1
# [18] = target: Gal(b1-4)GlcNAc
# Outline: as §1
# [19] = target: Gal(b1-4)GlcNAc(a1-6)Gal(b1-4)GlcNAc
# Outline: as §1
# [20] = target: Gal(b1-4)GlcNAc(b1-2)Man
# Outline: as §1
# [21] = target: Gal(b1-4)GlcNAc(b1-2)Man(a1-3)Man(b1-4)GlcNAc(b1-4)GlcNAc
# Outline: as §1
# [22] = target: Gal(b1-4)GlcNAc(b1-2)Man(a1-3)[Gal(b1-4)GlcNAc(b1-2)Man(a1-6)]Man(b1-4)GlcNAc(b1-4)GlcNAc
# Outline: as §1
# [23] = target: Gal(b1-4)GlcNAc(b1-2)Man(a1-3)[Gal(b1-4)GlcNAc(b1-2)Man(a1-6)]Man(b1-4)GlcNAc(b1-4)[Fuc(a1-6)]GlcNAc
# Outline: as §1
# [24] = target: Gal(b1-4)GlcNAc(b1-2)Man(a1-3)[Gal(b1-4)GlcNAc(b1-2)Man(a1-6)][Gal(b1-4)GlcNAc(b1-4)]Man(b1-4)GlcNAc(b1-4)[Fuc(a1-6)]GlcNAc
# Outline: as §1
# [25] = target: Gal(b1-4)GlcNAc(b1-2)Man(a1-3)[Gal(b1-4)GlcNAc(b1-2)Man(a1-6)][GlcNAc(b1-4)]Man(b1-4)GlcNAc(b1-4)[Fuc(a1-6)]GlcNAc
# Outline: as §1
# [26] = target: Gal(b1-4)GlcNAc(b1-2)Man(a1-3)[GlcNAc(b1-2)Man(a1-6)]Man(b1-4)GlcNAc(b1-4)GlcNAc
# Outline: as §1
# [27] = target: Gal(b1-4)GlcNAc(b1-2)Man(a1-3)[GlcNAc(b1-4)][Gal(b1-4)GlcNAc(b1-2)Man(a1-6)]Man(b1-4)GlcNAc(b1-4)GlcNAc
# Outline: as §1
# [28] = target: Gal(b1-4)GlcNAc(b1-2)Man(a1-3)[Man(a1-6)]Man(b1-4)GlcNAc(b1-4)GlcNAc
# Outline: as §1
# [29] = target: Gal(b1-4)GlcNAc(b1-2)Man(a1-6)Man(b1-4)GlcNAc(b1-4)GlcNAc
# Outline: as §1
# [30] = target: Gal(b1-4)GlcNAc(b1-2)Man(a1-6)[GlcNAc(b1-2)Man(a1-3)]Man(b1-4)GlcNAc(b1-4)GlcNAc
# Outline: as §1
# [31] = target: Gal(b1-4)GlcNAc(b1-2)Man(a1-6)[Man(a1-3)]Man(b1-4)GlcNAc(b1-4)GlcNAc
# Outline: as §1
# [32] = target: Gal(b1-4)GlcNAc(b1-2)[Gal(b1-4)GlcNAc(b1-4)]Man(a1-3)[Gal(b1-4)GlcNAc(b1-2)Man(a1-6)]Man(b1-4)GlcNAc(b1-4)GlcNAc
# Outline: as §1
# [33] = target: Gal(b1-4)GlcNAc(b1-2)[Gal(b1-4)GlcNAc(b1-4)]Man(a1-3)[Gal(b1-4)GlcNAc(b1-2)[Gal(b1-4)GlcNAc(b1-6)]Man(a1-6)]Man(b1-4)GlcNAc(b1-4)GlcNAc
# Outline: as §1
# [34] = target: Gal(b1-4)GlcNAc(b1-2)[Gal(b1-4)GlcNAc(b1-4)]Man(a1-3)[GlcNAc(b1-4)][Gal(b1-4)GlcNAc(b1-2)Man(a1-6)]Man(b1-4)GlcNAc(b1-4)GlcNAc
# Outline: as §1
# [35] = target: Gal(b1-4)GlcNAc(b1-2)[Gal(b1-4)GlcNAc(b1-4)]Man(a1-3)[GlcNAc(b1-4)][Gal(b1-4)GlcNAc(b1-2)[Gal(b1-4)GlcNAc(b1-6)]Man(a1-6)]Man(b1-4)GlcNAc(b1-4)GlcNAc
# Outline: as §1
# [36] = target: Gal(b1-4)GlcNAc(b1-2)[Gal(b1-4)GlcNAc(b1-6)]Man(a1-6)[Gal(b1-4)GlcNAc(b1-2)Man(a1-3)]Man(b1-4)GlcNAc(b1-4)GlcNAc
# Outline: as §1
# [37] = target: Gal(b1-4)GlcNAc(b1-2)[Gal(b1-4)GlcNAc(b1-6)]Man(a1-6)[Gal(b1-4)GlcNAc(b1-2)Man(a1-3)]Man(b1-4)GlcNAc(b1-4)[Fuc(a1-6)]GlcNAc
# Outline: as §1
binder,measurement,setting,value
B1,glycan array binding signal (z-score),[1],0.784
same,glycan array binding signal (z-score),[2],-0.312
same,glycan array binding signal (z-score),[3],-0.584
same,glycan array binding signal (z-score),[4],0.758
same,glycan array binding signal (z-score),[5],0.683
same,glycan array binding signal (z-score),[6],-1.25
same,glycan array binding signal (z-score),[7],0.778
same,glycan array binding signal (z-score),[8],-0.179
same,glycan array binding signal (z-score),[9],-0.568
same,glycan array binding signal (z-score),[10],0.179
same,glycan array binding signal (z-score),[11],-0.296
same,glycan array binding signal (z-score),[12],-1.44
same,glycan array binding signal (z-score),[13],-0.198
same,glycan array binding signal (z-score),[14],-1.33
same,glycan array binding signal (z-score),[15],-1.05
same,glycan array binding signal (z-score),[16],0.499
same,glycan array binding signal (z-score),[17],0.007
same,glycan array binding signal (z-score),[18],-0.875
same,glycan array binding signal (z-score),[19],-1.47
same,glycan array binding signal (z-score),[20],0.255
same,glycan array binding signal (z-score),[21],-0.25
same,glycan array binding signal (z-score),[22],0.355
same,glycan array binding signal (z-score),[23],3.13
same,glycan array binding signal (z-score),[24],-0.339
same,glycan array binding signal (z-score),[25],-1.45
same,glycan array binding signal (z-score),[26],-0.816
same,glycan array binding signal (z-score),[27],0.359
same,glycan array binding signal (z-score),[28],0.95
same,glycan array binding signal (z-score),[29],-0.278
same,glycan array binding signal (z-score),[30],-0.574
same,glycan array binding signal (z-score),[31],-0.862
same,glycan array binding signal (z-score),[32],-0.431
same,glycan array binding signal (z-score),[33],-1.06
same,glycan array binding signal (z-score),[34],-0.399
same,glycan array binding signal (z-score),[35],-0.348
same,glycan array binding signal (z-score),[36],-0.476
same,glycan array binding signal (z-score),[37],0.857

# An excerpt of these results, bar-delimited.
binder | measurement | setting | value
B1 | glycan array binding signal (z-score) | [19] | -1.47
same | glycan array binding signal (z-score) | [20] | 0.255
